From US20050148633A1 (priority 2003, published 2005)
For some of these results: The name of at least one read-out is uncertain. For some of these results: At least one structure is not confirmed: it was looked up by name or label, or the drawing left a doubt. Some entries share one result that the patent states for a list of compounds.

Protein sequences, listed by entry. Tags and fused reporters are not part of them. Lines headed by an entry give the natural chain unless they say otherwise; changes in a name come on top.
UniProt Q8TD43: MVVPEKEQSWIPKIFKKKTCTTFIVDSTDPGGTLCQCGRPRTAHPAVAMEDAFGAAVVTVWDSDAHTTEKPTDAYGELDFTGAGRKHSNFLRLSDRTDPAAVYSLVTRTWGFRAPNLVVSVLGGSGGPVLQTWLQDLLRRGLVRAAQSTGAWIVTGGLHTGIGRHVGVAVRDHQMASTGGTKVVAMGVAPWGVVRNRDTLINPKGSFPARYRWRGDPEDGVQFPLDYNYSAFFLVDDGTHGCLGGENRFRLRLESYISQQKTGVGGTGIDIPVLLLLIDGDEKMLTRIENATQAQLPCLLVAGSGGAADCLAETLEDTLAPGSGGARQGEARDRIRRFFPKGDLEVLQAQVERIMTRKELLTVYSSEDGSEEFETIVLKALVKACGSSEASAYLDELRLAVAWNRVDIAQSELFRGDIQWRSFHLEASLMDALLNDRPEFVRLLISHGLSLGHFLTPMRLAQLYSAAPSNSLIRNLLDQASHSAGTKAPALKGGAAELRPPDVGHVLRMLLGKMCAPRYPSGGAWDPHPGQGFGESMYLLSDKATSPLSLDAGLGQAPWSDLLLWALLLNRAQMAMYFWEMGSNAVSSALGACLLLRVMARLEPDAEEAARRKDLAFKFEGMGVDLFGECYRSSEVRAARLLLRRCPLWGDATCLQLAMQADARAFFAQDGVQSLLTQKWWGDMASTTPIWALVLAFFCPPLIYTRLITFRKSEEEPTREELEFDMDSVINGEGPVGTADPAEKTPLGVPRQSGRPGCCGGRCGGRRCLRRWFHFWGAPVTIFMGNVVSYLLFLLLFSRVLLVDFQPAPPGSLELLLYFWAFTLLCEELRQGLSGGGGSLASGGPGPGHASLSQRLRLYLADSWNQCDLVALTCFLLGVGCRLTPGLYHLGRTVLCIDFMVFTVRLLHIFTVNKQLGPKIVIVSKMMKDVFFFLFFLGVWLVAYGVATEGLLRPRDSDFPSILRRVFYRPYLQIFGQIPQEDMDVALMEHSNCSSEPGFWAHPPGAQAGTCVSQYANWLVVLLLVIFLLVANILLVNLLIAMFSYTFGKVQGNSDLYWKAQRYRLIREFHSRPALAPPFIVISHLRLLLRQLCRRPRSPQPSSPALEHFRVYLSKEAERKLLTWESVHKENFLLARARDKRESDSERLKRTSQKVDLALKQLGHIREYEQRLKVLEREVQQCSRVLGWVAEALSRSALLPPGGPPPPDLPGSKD

Legend:
TNF-α production = TNF-α production upon PMA/ionomycin stimulation in whole blood of dosed cynomolgus monkeys; format: in vivo; conditions: 4 hours after dosing
Description: (§1) 3 male non-native cynomolgus monkeys were fasted overnight prior to and for four (4) hours following each dose. Each monkey was given a single intravenous dose of the appropriate test compound followed by a 1 mL rinse of saline to flush the catheter. The dose was infused over one hour using calibrated syringe pumps. Following a one week washout, the same three monkeys were given a single oral gavage dose of the appropriate test compound dose formulation followed by a 10 mL flush with tap water. Following a second one week washout, the same three monkeys received a second oral dose of the appropriate test compound dose formulation followed by a 10 mL flush with tap water. Following a third one week washout, the same three monkeys received a third oral dose of the appropriate test compound dose formulation followed by a 10 mL flush with tap water. Prior to and at 1, 2, and 4 hours following each dose (measured from the start of dosing for IV doses), blood samples ([…] for Group 1 and 2 mL/sample for Groups 2 and 3) were drawn into tubes containing sodium heparin and stored at room temperature, and the concentration of the test compounds in each sample was measured. CsA was included as a positive control.

IL-2 production [1] = experiment: IL-2 production upon PMA/ionomycin stimulation in whole blood of dosed cynomolgus monkeys; format: in vivo; conditions: 4 hours after dosing
Description: as §1

IL-2 production [2] = experiment: Inhibition of IL-2 production in PHA-activated Jurkat cells (ELISA); format: cell-based, human
Description: Jurkat cells were placed in a 96 well plate (0.5 million cells per well in 1% FBS medium) then test compounds of this invention were added at different concentrations. After 10 minutes, the cells were activated with PHA (final concentration 2.5 μg/mL) and incubated for 20 hours at 37° C. under CO2. The final volume was 200 μL. Following incubation, the cells were centrifuged and the supernatants collected and stored at −70° C. prior to assaying for IL-2 production. A commercial ELISA kit (IL-2 Eli-pair, Diaclone Research, Besancon, France) was used to detect production of IL-2, from which dose response curves were obtained. The IC50 value was calculated as the concentration at which 50% of maximum IL-2 production after stimulation was inhibited versus a non-stimulation control.

TRPM4 = target: T1, TRPM4 (Homo sapiens, UniProt Q8TD43); experiment: Activation of TRPM4 channel, whole-cell patch clamp in Jurkat cells and HEK-293 cells overexpressing TRPM4; format: cell-based; conditions: 10 μM compound
T1 construct: FLAG (N); expressed in transfected cells; host or cells: HEK 293 (tetracycline-induced FLAG-humanTRPM4/pCDNA4/TO); also Jurkat cells (endogenous TRPM4)
Description: Human leukemic T cells (Jurkat cells) and HEK 293 cells transfected with the FLAG-humanTRPM4/pCDNA4/TO construct were grown on glass coverslips with DMEM medium supplemented with 10% FBS, blasticidin (5 μg/mL) and zeocin ([…]). TRPM4 expression was induced one day before use by adding 1 μg/mL tetracycline to the culture medium and patch clamp experiments were performed 16-24 hours post-induction (for additional details see Launay et al. (2000)).
Patch clamp experiments were performed in the tight-seal whole-cell configuration at 21-25° C. High resolution current recordings were acquired by a computer-based patch clamp amplifier system (EPC-9, HEKA, Lambrecht, Germany). Patch pipettes had resistances between […] after filling with the standard intracellular solution. […] Capacitive currents and series resistance were determined and corrected before each voltage ramp using the automatic capacitance compensation of the EPC-9. The low resolution temporal development of membrane currents was assessed by extracting the current amplitude at −80 mV or +80 mV from individual ramp current records.
TRPM4 currents were measured in Jurkat cells and HEK-293 cells overexpressing TRPM4. […]

Q: What does the source list for `CSc1ccccc1-c1ccc(NC(=O)c2ccncc2C)cc1` [Compound 75, 3-methyl-pyridine-4-carboxylic acid (2′-methylsulfanyl-biphenyl-4-yl)-amide]?
A: TNF-α production after IV infusion (FIG. 4) (TNF-α production; IV 5 mg/kg): significantly inhibit TNF-α production; TNF-α production after oral dosing (FIG. 6) (TNF-α production; PO 30 mg/kg): significantly inhibit TNF-α production; IL-2 production after IV infusion (FIG. 3) (IL-2 production [1]; IV 5 mg/kg): significantly inhibit IL-2 production; IL-2 production after oral dosing (FIG. 5) (IL-2 production [1]; PO 30 mg/kg): significantly inhibit IL-2

Q: How did the “Rank of IC50 (footnote *)” value (IL-2 production [2]; PHA, among the compounds of the table) turn out when `O=C(Nc1ccc(-c2cc(C(F)(F)F)ccc2Cl)cc1)c1cccc(F)c1F` [Compound 23] was run?
A: *Lowest IC50 value

Q: For “N-{5-(2′,5′-dimethoxyphenyl)-pyrid-2-yl}-2-methylbenzamide [Compound 78]”, which IC50 (IL-2 production [2]; PHA […], 20 hours, value bins) is on record?
A: 0.1 to 0.5 µM

Q: With `COc1ccc(OC)c(-c2ccc(NC(=O)c3ccncc3F)cc2)c1` [Compound 66, 3-fluoro-pyridine-4-carboxylic acid (2′,5′-dimethoxybiphenyl-4-yl)-amide] as the molecule, how does the “effect on TRPM4 currents in Jurkat cells” value (TRPM4) read?
A: no effect
